Data as given in PubChem BioAssay AID1053208 (Peter MacCallum Cancer Centre, 2014)

- Screen: 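Find knock-downs that sensitise mouse osteosarcoma cells to doxorubicin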 (primary screen)
- System: mouse osteosarcoma cells, early-passage culture from an engineered mouse model of fibroblastic bone tumour
- Reagent: siRNA pool against mouse genes, 40 nM
- Time to read-out: about 120 h (48 h before drug, then 72 h with drug)
- Treatment: doxorubicin 100 nM for 72 h, roughly 30-40% inhibitory dose
- Measured: 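Viability read as ATP luminescence after 72 h of 100 nM doxorubicin or none, duplicate wells averaged, scaled to non-targeting siRNA, then expressed as robust z-scores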
- Direction: viability z-score with doxorubicin and doxorubicin viability vs non-targeting: higher = more viable cells under doxorubicin; viability z-score without drug: higher = more viable cells with knock-down alone; z-score of drug to no-drug ratio: higher = less drug sensitisation by knock-down
- Rule for the call: 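a pool counts as active when its viability z-score with doxorubicin is -2 or below and its z-score without drug lies between -2 and 2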
In all, the deposit lists about 17,000 reagents; this is a part drawn at random. 788 of them (4.7%) were called active. 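Calls rest on z-score classes alone; an extra cut-off of viability at most 70% of control was not applied to them.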

The first 2 entries, ahead of the listing:
no.	gene knocked down	combined z-score class	viability z-score with doxorubicin	viability z-score without drug	z-score of drug to no-drug ratio	doxorubicin viability vs non-targeting	Call
1	E230025N22Rik	no change with or without drug	-1.12	0.51	-1.35	0.84	inactive
2	Oprl1	no change with or without drug	0.22	-0.17	0.45	0.96	inactive

Main list, from the start:
no.	gene knocked down	combined z-score class	viability z-score with doxorubicin	viability z-score without drug	z-score of drug to no-drug ratio	doxorubicin viability vs non-targeting	Call
1	E230025N22Rik	no change with or without drug	-1.12	0.51	-1.35	0.84	inactive
2	Oprl1	no change with or without drug	0.22	-0.17	0.45	0.96	inactive
3	Fam53c	no change with or without drug	0.45	0.51	0.22	0.98	inactive
4	Frem1	no change with or without drug	-1.24	0.34	-1.35	0.83	inactive
5	Afmid	no change with or without drug	0.11	-0.84	0.9	0.95	inactive
6	Cyp2j6	no change with or without drug	0.9	0.67	0.56	1.02	inactive
7	Or5ak23	no change with or without drug	0.22	-0.17	0.45	0.96	inactive
8	Synb	no change with or without drug	-0.22	-0.51	0.22	0.92	inactive
9	Gba2	no change with or without drug	-0.67	0.17	-0.67	0.88	inactive
10	Sec61a2	no change with or without drug	0	0.17	0	0.94	inactive
11	Kcna1	no change with or without drug	-0.9	0.17	-0.9	0.86	inactive
12	Lypd8l	no change with or without drug	0.22	0.84	-0.22	0.96	inactive
13	Pcdhb5	no change with or without drug	1.46	1.52	0.56	1.07	inactive
14	Clic1	no change with or without drug	-1.8	-0.51	-1.46	0.78	inactive
15	Gcsh	no change with or without drug	-0.11	-0.34	0.22	0.93	inactive
16	Nlrp10	no change with or without drug	1.12	0	1.24	1.04	inactive
17	Ranbp17	no change with or without drug	0.45	-0.17	0.67	0.98	inactive
18	Or10k2	no change with or without drug	-0.45	-1.01	0.34	0.9	inactive
19	Bace2	no change with or without drug	-1.8	-0.51	-1.46	0.78	inactive
20	4930412M03Rik	low cell count with doxorubicin only	-2.7	0	-2.7	0.7	active
21	Mpv17l	no change with or without drug	-0.45	-1.01	0.34	0.9	inactive
22	Mrpl28	no change with or without drug	0.22	-0.17	0.45	0.96	inactive
23	Adgrg2	no change with or without drug	-1.01	-0.51	-0.67	0.85	inactive
24	Rpap2	no change with or without drug	0.56	-0.17	0.79	0.99	inactive
25	Spdl1	no change with or without drug	0.79	0.17	0.79	1.01	inactive
26	Krtap13-21	low cell count with and without drug	-3.04	-2.53	-1.57	0.67	inactive
27	Ctnnb1	no change with or without drug	-0.11	0.17	-0.11	0.93	inactive
28	Osbpl6	low cell count with doxorubicin only	-2.14	-1.18	-1.46	0.75	active
29	Ap2b1	low cell count with doxorubicin only	-2.36	-1.52	-1.46	0.73	active
30	Bcar1	low cell count without drug only	-1.35	-2.19	0.22	0.82	inactive
31	Prkag1	no change with or without drug	1.57	1.18	0.9	1.08	inactive
32	Trp73	no change with or without drug	-0.45	1.69	-1.35	0.9	inactive
33	Adra2c	no change with or without drug	0	-0.34	0.34	0.94	inactive
34	Spata17	low cell count with doxorubicin only	-3.37	0.67	-3.71	0.64	active
35	Nnmt	no change with or without drug	-0.22	-1.52	1.01	0.92	inactive
36	Frmpd3	no change with or without drug	-1.91	-0.17	-1.8	0.77	inactive
37	A730036I17Rik	no change with or without drug	0.22	1.18	-0.45	0.96	inactive
38	Spr	no change with or without drug	0.34	-0.51	0.79	0.97	inactive
39	Rhox4e	no change with or without drug	-1.12	-0.17	-1.01	0.84	inactive
40	Elmod2	high cell count without drug only	-1.69	2.19	-2.81	0.79	inactive
41	Or11i1	no change with or without drug	-0.22	0.51	-0.45	0.92	inactive
42	Gm16938	no change with or without drug	0.9	-0.51	1.46	1.02	inactive
43	Aoc1	high cell count without drug only	0.9	2.02	-0.34	1.02	inactive
44	Stat5b	no change with or without drug	-0.9	-0.51	-0.56	0.86	inactive
45	Cd200r4	no change with or without drug	0	-0.17	0.22	0.94	inactive
46	Prpsap1	no change with or without drug	0.22	-0.34	0.56	0.96	inactive
47	Cox7c	no change with or without drug	0	0.17	0	0.94	inactive
48	Pmaip1	no change with or without drug	0	0.17	0	0.94	inactive
49	Cacng1	no change with or without drug	0	1.18	-0.67	0.94	inactive
50	Cep164	no change with or without drug	1.01	-0.51	1.57	1.03	inactive
